# Laboratory results reported in PubChem BioAssay AID504444 (National Center for Advancing Translational Sciences (NCATS), 2011).
# Screen size: about 360,000 compounds; about 7,500 (2.1%) were called active. The inconclusive results got no clear call from the source; some entries with a clear call stand among them for comparison. Calls follow the shape of the dose curve; as a rule, active = well fitted inhibition curve with a large enough effect; inconclusive = small, poorly fitted or top-dose-only effect, or effect the other way; inactive = flat fitted curve, though single readings scatter. Potencies of inconclusive entries are doubtful fits and often do not repeat.
# Assay: Nrf2 qHTS screen for inhibitors; also: nearly all actives have a fitted effect of over 60% in size
# Settings: A549 ARE-Fluc reporter, luciferase luminescence, 18-24 h; series mostly up to 46 µM
# Outline: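 A549 ARE_Fluc cells, 5000/well, 5% FBS OPTI-MEM; compounds in dose-response, 18-24 h at 37 °C/5% CO2; CellTiter-Fluor viability read (Ex 405/Em 525), then BugLite luciferase luminescence = Nrf2 activity.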
# Potency is read from the fitted curve at half-maximal effect.
row,Compound,Potency
1,Cc1ccc(CNC(=S)NCc2ccncc2)cc1,"inconclusive: 20.6 µM [falling, single point]"
2,O=C(CCCSc1nc2ccccc2c(=O)[nH]1)c1ccc(F)cc1,"inconclusive: 8.2 µM [falling, partial curve, poor fit]"
3,Cc1cc(C)nc(SCc2ccc(C(=O)N/N=C/c3ccncc3)cc2)n1,inactive
4,NC(=O)C1CCN(C2CC(=O)N(c3cccc(F)c3)C2=O)CC1 (stereo not given),"inconclusive: 23.1 µM [activator, single point]"
5,O=C(Nc1ccc2c(c1)OCO2)C1CC(c2ccccc2Cl)=NO1 (stereo not given),"inconclusive: 20.6 µM [activator, single point]"
6,CCCC(=O)N1CCCC(C(=O)c2cccc(OC(C)C)c2)C1 (stereo not given),"inconclusive: 18.4 µM [activator, partial curve]"
7,C[C@H](CO)N1C[C@H](C)[C@@H](CN(C)S(C)(=O)=O)Oc2ccc(NS(=O)(=O)c3cn(C)cn3)cc2C1=O,inactive
8,CN(C)c1cc(-c2ccc(Br)cc2)oc(=O)c1Cl,"inconclusive: 0.184 µM [falling, full curve, poor fit]"
9,O=C(COC(=O)C1CCCO1)Nc1cccc(C(F)(F)F)c1 (stereo not given),"inconclusive: 6.51 µM [falling, single point]"
10,Cc1cccc2cc(CN(CC3CCCO3)C(=S)Nc3ccccc3)c(=O)[nH]c12 (stereo not given),inactive
11,CC(C)c1ccc(NC(=O)c2cn(C3CCCC3)c(=O)c3c2c2ccccc2n3C)cc1,inactive
12,Cc1cc(C)cc(N(CC(=O)Nc2ccccc2-c2ccccc2)S(=O)(=O)c2ccccc2)c1,inactive
13,Cc1ccc(NC(=O)c2nc[nH]c2C(=O)N[C@@H](C)c2ccccc2)cc1,"inconclusive: 18.4 µM [falling, partial curve, poor fit]"
14,CCN(CC)CCN(Cc1cc2cc3c(cc2[nH]c1=O)OCO3)C(=S)NCc1ccco1,"inconclusive: 6.51 µM [activator, single point]"
15,COc1ccc(C(=O)N2CCN(CCCc3ccccc3)CC2)cc1OC,"inconclusive: 29.1 µM [falling, single point]"
16,CCCS(=O)(=O)c1c(S(=O)(=O)CCC)c2c(N)cccn2c1C(=O)c1ccc(Br)cc1,"inconclusive: 16.4 µM [falling, partial curve]"
17,CCC1Sc2ccccc2N(CC(=O)NC2CCCC2)C1=O (stereo not given),"inconclusive: 32.6 µM [activator, single point]"
18,Nc1nc(SCc2ccc(Cl)c(Cl)c2)n[nH]1,"inconclusive: 29.1 µM [activator, single point]"
19,Cc1ccc(SC(CC(=O)c2ccc(C(C)(C)C)cc2)C(=O)O)cc1 (stereo not given),"inconclusive: 20.6 µM [activator, partial curve]"
20,Cc1ccc(S(=O)(=O)C2(C(=O)Nc3nccs3)CC2)cc1,"inconclusive: 10.3 µM [activator, partial curve, poor fit]"
21,Fc1ccc(C2=CC(c3cccs3)n3nnnc3N2)cc1 (stereo not given),"inconclusive: 5.8 µM [activator, partial curve, poor fit]"
22,CC(=O)Oc1ccc2ccccc2c1C(NC(=O)Cc1ccccc1)c1ccccc1Cl (stereo not given),"inconclusive: 29.1 µM [falling, single point]"

# 3 successive compounds from above, for reference:
row,Compound,Potency
11,CC(C)c1ccc(NC(=O)c2cn(C3CCCC3)c(=O)c3c2c2ccccc2n3C)cc1,inactive
12,Cc1cc(C)cc(N(CC(=O)Nc2ccccc2-c2ccccc2)S(=O)(=O)c2ccccc2)c1,inactive
13,Cc1ccc(NC(=O)c2nc[nH]c2C(=O)N[C@@H](C)c2ccccc2)cc1,"inconclusive: 18.4 µM [falling, partial curve, poor fit]"

# Further entries follow.

row,Compound,Potency
1,Cc1ccc(NC(=O)CCn2nc(C)c3c(C)n(-c4ccccc4)nc3c2=O)cc1Cl,"inconclusive: 1.16 µM [falling, full curve]"
2,COCCCNc1nc2ccccc2nc1NS(=O)(=O)c1ccc(Cl)cc1,inactive
3,Cc1[nH]nc2c1C(c1ccco1)C(C#N)=C(N)O2 (stereo not given),"inconclusive: 1.16 µM [activator, partial curve, poor fit]"
4,Cc1cccc(C(=O)N2CCN(Cc3ccc4c(c3)OCO4)CC2)c1,"inconclusive: 29.1 µM [falling, single point]"
5,O=C(Cn1ncc2ccsc2c1=O)N1CCN(c2ccc(Cl)cc2)CC1,"inconclusive: 18.4 µM [falling, partial curve, poor fit]"
6,CCc1ccccc1NC(=O)CN1CCN(C(=O)C2CCN(C(=O)/C=C/c3ccccc3)CC2)CC1,"inconclusive: 29.1 µM [falling, single point]"
7,Cc1ccc(-c2nn(CCC(=O)NC(C)C)c(=O)c3ccccc23)cc1,"inconclusive: 7.31 µM [falling, partial curve, poor fit]"
8,COc1ccc(NC(=O)c2c(-c3ccc(C)cc3)nnc3ccccc23)cc1OC,"inconclusive: 29.1 µM [falling, single point]"
9,COc1ccccc1/C=C/C(=O)NNC(=O)c1cccs1,"inconclusive: 23.1 µM [activator, partial curve, poor fit]"
10,Cc1ccc(NC(=O)c2ccc(-n3cncn3)c([N+](=O)[O-])c2)cc1,inactive
11,O=C(NC(=S)Nc1ccc2cn[nH]c2c1)c1ccccc1,"inconclusive: 3.66 µM [activator, partial curve]"
12,O=C(NCc1ccccc1)c1onc(CSc2nc3ccccc3[nH]2)c1C(=O)NCc1ccccc1,"inconclusive: 23.1 µM [falling, single point]"
13,Cc1ccc(C)c(S(=O)(=O)N2CCCC2CNC(=O)C(=O)NCc2cccs2)c1 (stereo not given),"inconclusive: 11.6 µM [falling, partial curve, poor fit]"
14,Cc1cc(N2C(=O)C(=O)/C(=C(/O)c3ccc(F)cc3)C2c2ccc(Cl)cc2)no1 (stereo not given),"inconclusive: 16.4 µM [falling, single point]"
15,CCOc1ccc2oc(=O)cc(CN3CCN(c4cc(C)ccc4C)CC3)c2c1,inactive
16,Cc1cccc(N2CCN(C(=O)C3CCN(S(=O)(=O)c4cccc5cccnc45)CC3)CC2C)c1 (stereo not given),"inconclusive: 23.1 µM [falling, partial curve, poor fit]"
17,CCN1CCN(Cc2ccc(NC(=O)c3ccc(C)c(NC(=O)c4cccc(-c5cn[nH]c(=O)c5)c4)c3)cc2C(F)(F)F)CC1,"inconclusive: 29.1 µM [falling, single point]"
18,C/C(CC(=O)Nc1ccc2c(c1)OCCO2)=N\NC(=O)Cc1ccccc1,"inconclusive: 10.3 µM [activator, partial curve, poor fit]"
19,COc1ccc(C2C(C#N)=C(C)NC3=C2S(=O)(=O)c2ccccc23)cc1 (stereo not given),"inconclusive: 29.1 µM [falling, single point]"
20,CCOc1cc(S(=O)(=O)NCc2ccc(OC)cc2)c(OCC)cc1-n1cnnn1,inactive
21,CCn1c(NCc2ccco2)nc2c1c(=O)n(C)c(=O)n2C,inactive
22,O=[N+]([O-])c1cccc(CNC2CCCCCC2)c1,"inconclusive: 16.4 µM [falling, partial curve, poor fit]"

row,Compound,Potency
1,O=C(NCc1ccc(F)cc1)c1ccc(CS(=O)(=O)c2ccc(Br)cc2)o1,"inconclusive: 20.6 µM [falling, single point]"
2,Cc1ccc(NC(=O)C2CC2c2ccccc2)c([N+](=O)[O-])c1 (stereo not given),"inconclusive: 16.4 µM [activator, partial curve]"
3,CC(C)CC(=O)Nc1cccc(-c2csc(-c3ccccc3)n2)c1,"inconclusive: 29.1 µM [falling, single point]"
4,O=C(N/N=C/c1cccnc1)C1CC1(c1ccccc1)c1ccccc1 (stereo not given),"inconclusive: 2.31 µM [falling, partial curve, poor fit]"
5,Clc1ccc(-c2csc(N3CCOCC3)n2)cc1,"inconclusive: 20.6 µM [activator, single point]"
6,Cc1c(NC(=O)CSc2nncc3ccccc23)c(=O)n(-c2ccccc2)n1C,"inconclusive: 23.1 µM [falling, single point]"
7,O=C(CC(c1ccccc1)c1ccccc1)NCc1cccnc1,"inconclusive: 4.11 µM [activator, partial curve]"
8,Cc1cc2nc(/C=C/c3cccnc3)[nH]c2cc1C,"inconclusive: 3.26 µM [activator, partial curve]"
9,O=C(c1cc(COc2ccc3ncccc3c2)on1)N1CCCCCC1,active: 3.66 µM
10,O=S(=O)(NCc1ccccc1)c1ccc(S(=O)(=O)N(Cc2ccccn2)C2CCCC2)cc1,"inconclusive: 32.6 µM [falling, single point]"
11,NC1=NC[C@H](Cc2ccccc2)N1CC1CCCCC1,inactive
12,CC(=O)Nc1ccc(N=C(C2=C(O)c3ccccc3C2=O)c2ccccc2)cc1,active: 20.6 µM
13,O=C(CSCc1ccc(Cl)cc1)N/N=C/c1ccccc1,"inconclusive: 25.9 µM [falling, partial curve, poor fit]"
14,C=C(C)c1cccc(C(C)(C)NC(=O)Nc2nncs2)c1,inactive
15,CC(C)CC(COCc1ccc(C(F)(F)F)cc1)N1CCN(C(=O)c2ccc(C(F)(F)F)cc2)CCC1=O (stereo not given),active: 23.1 µM
16,CN(Cc1c(F)cccc1Cl)C(=O)c1cccc(S(=O)(=O)N2CCN(Cc3ccccc3)CC2)c1,"inconclusive: 29.1 µM [falling, single point]"
17,O=C(CCCN1C(=O)/C(=C/c2ccccc2Cl)SC1=S)NNC(=O)c1ccncc1,active: 25.9 µM
18,CN1CCc2c(sc3c2C(=O)NC(c2ccccc2)N3)C1 (stereo not given),"inconclusive: 14.6 µM [activator, partial curve]"
19,O=C(CSc1nnc(-c2cccc(Cl)c2)o1)N1CCc2ccccc21,inactive
20,OCCN1CCN(c2nc(-c3ccccc3O)nc3ccccc23)CC1,"inconclusive: 29.1 µM [falling, single point]"
21,O=C1OC(C(=O)Nc2ccccc2)Cc2ccccc21 (stereo not given),"inconclusive: 16.4 µM [activator, partial curve, poor fit]"
